In test [1] the target is T1, PLS fused to the GAL4 DNA-binding domain (bait, pBD-GAL4 Cam) (Arabidopsis thaliana) (UniProt Q8LLV8).
T1 sequence: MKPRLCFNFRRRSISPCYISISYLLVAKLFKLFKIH
The experiment in a line: two-hybrid.

The target in test [2] is T2, PLS linked to a C-terminal GFP (p35S::PLS:GFP) (Arabidopsis thaliana) (UniProt Q8LLV8).
T2 sequence: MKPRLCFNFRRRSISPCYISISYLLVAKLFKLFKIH
The experiment in a line: co-IP.

For test [3], the target named is T3, ETR1 with a C-terminal HA tag (p35S::ETR1:HA) (Arabidopsis) (UniProt P49333).
T3 sequence: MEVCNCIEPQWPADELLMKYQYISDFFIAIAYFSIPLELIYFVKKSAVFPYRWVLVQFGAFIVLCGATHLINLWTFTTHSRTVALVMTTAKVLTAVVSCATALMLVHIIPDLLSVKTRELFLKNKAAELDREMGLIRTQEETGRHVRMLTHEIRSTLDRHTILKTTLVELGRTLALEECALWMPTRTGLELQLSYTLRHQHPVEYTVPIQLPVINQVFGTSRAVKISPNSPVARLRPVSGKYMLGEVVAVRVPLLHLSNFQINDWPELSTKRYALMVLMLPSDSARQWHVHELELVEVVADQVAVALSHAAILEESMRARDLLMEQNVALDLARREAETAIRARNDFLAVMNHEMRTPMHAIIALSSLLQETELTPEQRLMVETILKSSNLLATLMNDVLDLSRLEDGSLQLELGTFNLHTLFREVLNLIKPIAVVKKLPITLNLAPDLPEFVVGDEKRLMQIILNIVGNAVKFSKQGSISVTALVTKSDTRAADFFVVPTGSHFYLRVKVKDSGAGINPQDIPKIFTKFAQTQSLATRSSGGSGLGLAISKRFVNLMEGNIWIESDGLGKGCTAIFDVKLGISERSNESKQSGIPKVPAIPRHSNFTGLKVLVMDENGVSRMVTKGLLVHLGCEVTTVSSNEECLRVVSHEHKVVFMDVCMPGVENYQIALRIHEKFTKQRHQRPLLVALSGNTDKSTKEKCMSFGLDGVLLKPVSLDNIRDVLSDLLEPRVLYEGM
The experiment in a line: co-IP.

Test [4] deals with T3, ETR1 with a C-terminal HA tag (p35S::ETR1:HA) (Arabidopsis). The experiment in a line: co-IP. The source holds these as a separate data set.

Where two headings read alike, the source gives them in different places. Results are given in words; binding and its absence hold for the method and conditions named. For some of these results: In cells and extracts the contact can be indirect. Some results given as binding are weak or reduced against the parent protein; the word gives no strength. Where a sequence is shown, tags or fusion partners need not be part of it.

B1: ETR1 fused to the GAL4 activation domain (target, pAD-GAL4-2.1) (receptor, UniProt P49333 1-738)
chain: MEVCNCIEPQWPADELLMKYQYISDFFIAIAYFSIPLELIYFVKKSAVFPYRWVLVQFGAFIVLCGATHLINLWTFTTHSRTVALVMTTAKVLTAVVSCATALMLVHIIPDLLSVKTRELFLKNKAAELDREMGLIRTQEETGRHVRMLTHEIRSTLDRHTILKTTLVELGRTLALEECALWMPTRTGLELQLSYTLRHQHPVEYTVPIQLPVINQVFGTSRAVKISPNSPVARLRPVSGKYMLGEVVAVRVPLLHLSNFQINDWPELSTKRYALMVLMLPSDSARQWHVHELELVEVVADQVAVALSHAAILEESMRARDLLMEQNVALDLARREAETAIRARNDFLAVMNHEMRTPMHAIIALSSLLQETELTPEQRLMVETILKSSNLLATLMNDVLDLSRLEDGSLQLELGTFNLHTLFREVLNLIKPIAVVKKLPITLNLAPDLPEFVVGDEKRLMQIILNIVGNAVKFSKQGSISVTALVTKSDTRAADFFVVPTGSHFYLRVKVKDSGAGINPQDIPKIFTKFAQTQSLATRSSGGSGLGLAISKRFVNLMEGNIWIESDGLGKGCTAIFDVKLGISERSNESKQSGIPKVPAIPRHSNFTGLKVLVMDENGVSRMVTKGLLVHLGCEVTTVSSNEECLRVVSHEHKVVFMDVCMPGVENYQIALRIHEKFTKQRHQRPLLVALSGNTDKSTKEKCMSFGLDGVLLKPVSLDNIRDVLSDLLEPRVLYEGM
As to B1, in test [1], the binding entry is “binds”.

B2: ETR1 with a C-terminal HA tag (p35S::ETR1:HA) (receptor, UniProt P49333 1-738)
chain: MEVCNCIEPQWPADELLMKYQYISDFFIAIAYFSIPLELIYFVKKSAVFPYRWVLVQFGAFIVLCGATHLINLWTFTTHSRTVALVMTTAKVLTAVVSCATALMLVHIIPDLLSVKTRELFLKNKAAELDREMGLIRTQEETGRHVRMLTHEIRSTLDRHTILKTTLVELGRTLALEECALWMPTRTGLELQLSYTLRHQHPVEYTVPIQLPVINQVFGTSRAVKISPNSPVARLRPVSGKYMLGEVVAVRVPLLHLSNFQINDWPELSTKRYALMVLMLPSDSARQWHVHELELVEVVADQVAVALSHAAILEESMRARDLLMEQNVALDLARREAETAIRARNDFLAVMNHEMRTPMHAIIALSSLLQETELTPEQRLMVETILKSSNLLATLMNDVLDLSRLEDGSLQLELGTFNLHTLFREVLNLIKPIAVVKKLPITLNLAPDLPEFVVGDEKRLMQIILNIVGNAVKFSKQGSISVTALVTKSDTRAADFFVVPTGSHFYLRVKVKDSGAGINPQDIPKIFTKFAQTQSLATRSSGGSGLGLAISKRFVNLMEGNIWIESDGLGKGCTAIFDVKLGISERSNESKQSGIPKVPAIPRHSNFTGLKVLVMDENGVSRMVTKGLLVHLGCEVTTVSSNEECLRVVSHEHKVVFMDVCMPGVENYQIALRIHEKFTKQRHQRPLLVALSGNTDKSTKEKCMSFGLDGVLLKPVSLDNIRDVLSDLLEPRVLYEGM
With B2, the binding entry in test [2] is reported as “binds”.

On to MKPRLCFNFRRRSISPCYISISYLLVAKLFKLFKIH (peptide, UniProt Q8LLV8 1-36) [PLS linked to a C-terminal GFP (p35S::PLS:GFP)], for which the binding result in test [3] and in test [4] was “binds” each time.

Values taken from publication doi:10.1101/2023.06.15.545071.
